Values quoted from earlier work as cited in US20170166981A1, “BIOMARKERS AND METHODS OF USE THEREOF” (THE TRANSLATIONAL GENOMICS RESEARCH INSTITUTE, priority 2011, published 2017).
At least one structure is not confirmed: it was looked up by name or label, or the drawing left a doubt.

Test system: cell lines harboring FBXW7 mutations and deletions
Conditions: cited from earlier work

## CO[C@H]1C[C@@H]2CC[C@@H](C)[C@@](O)(O2)C(=O)C(=O)N2CCCC[C@H]2C(=O)O[C@H]([C@H](C)C[C@@H]2CC[C@@H](O)[C@H](OC)C2)CC(=O)[C@H](C)/C=C(\C)[C@@H](O)[C@@H](OC)C(=O)[C@H](C)C[C@H](C)/C=C/C=C/C=C/1C [rapamycin]
  sensitivity of cell lines: highly sensitive
